From article PMC8550248
Results are given in words; binding and its absence hold for the method and conditions named. Binding seen in cells or lysates may run through a third protein.

Legend:
[1] = molecular target: endogenous wild-type p53 (human (endogenous in HCT116, U2OS, A375)) (UniProt P04637); experiment: co-IP; endogenous proteins, HCT116 lysate; IP with anti-p53 monoclonal antibody DO-1, IgG control; Western blot
[2] = molecular target: endogenous wild-type p53 (human (endogenous in HCT116, U2OS, A375)) (UniProt P04637); experiment: co-IP; endogenous proteins, A375 lysate; IP with anti-p53 antibody, IgG control; Western blot
[3] = molecular target: endogenous wild-type p53 (human (endogenous in HCT116, U2OS, A375)) (UniProt P04637); experiment: co-IP; endogenous proteins, U2OS lysate; IP with anti-p53 antibody, IgG control; Western blot

Measured: binding

B1: DiGeorge syndrome critical region 8 (DGCR8) (endogenous) (protein, UniProt Q8WYQ5 1-773)
chain: METDESPSPLPCGPAGEAVMESRARPFQALPREQSPPPPLQTSSGAEVMDVGSGGDGQSELPAEDPFNFYGASLLSKGSFSKGRLLIDPNCSGHSPRTARHAPAVRKFSPDLKLLKDVKISVSFTESCRSKDRKVLYTGAERDVRAECGLLLSPVSGDVHACPFGGSVGDGVGIGGESADKKDEENELDQEKRVEYAVLDELEDFTDNLELDEEGAGGFTAKAIVQRDRVDEEALNFPYEDDFDNDVDALLEEGLCAPKKRRTEEKYGGDSDHPSDGETSVQPMMTKIKTVLKSRGRPPTEPLPDGWIMTFHNSGVPVYLHRESRVVTWSRPYFLGTGSIRKHDPPLSSIPCLHYKKMKDNEEREQSSDLTPSGDVSPVKPLSRSAELEFPLDEPDSMGADPGPPDEKDPLGAEAAPGALGQVKAKVEVCKDESVDLEEFRSYLEKRFDFEQVTVKKFRTWAERRQFNREMKRKQAESERPILPANQKLITLSVQDAPTKKEFVINPNGKSEVCILHEYMQRVLKVRPVYNFFECENPSEPFGASVTIDGVTYGSGTASSKKLAKNKAARATLEILIPDFVKQTSEEKPKDSEELEYFNHISIEDSRVYELTSKAGLLSPYQILHECLKRNHGMGDTSIKFEVVPGKNQKSEYVMACGKHTVRGWCKNKRVGKQLASQKILQLLHPHVKNWGSLLRMYGRESSKMVKQETSDKSVIELQQYAKKNKPNLHILSKLQEEMKRLAEEREETRKKPKMSIVASAQPGGEPLCTVDV
no binding: [1] | [2] | [3]
